Measurements taken from patent US4925943A, “2-(2-aminobenzyl or 2-nitrobenzyl)-1,2,3,4-tetrahydroisoquinoline derivatives” (priority 1986, dated 1990).

Tested on: α2 adrenergic receptors of rat cerebral cortex
Assay: [3H] yohimbine binding, rat cerebral cortex (α2)
Set-up: species or system rat (male Wistar)
Settings: ratio of Ki, [3H] yohimbine / [3H] prazosine sites
Method: The preparation of the cerebral cortex homogenates is made starting from male Wistar rats, age 12 weeks. After decapitation, the brains are rapidly removed and dissected. The tissues are homogenized with the aid of an ultra-turrax in 50 mM of a pH 7.5 Tris-HCl buffer and centrifuged at 40,000 g for ten minutes. The centrifugate is dissolved in buffer and recentrifuged in the same way. All of the operations are carried out at a temperature less than 4° C. The final centrifugate is homogenized in the incubation buffer maintained in melting ice (tris-HCl 50 mM pH 7.5) so as to obtain a final dilution of the cortical tissue of 1/100 (by volume), which corresponds to about 0.5 mg of protein per ml.
These filters are rinsed 4 times with 5 ml of incubation buffer preserved in ice. The radioactivity retained on the filters is counted by liquid scintillation. The non-specific fixation of the radioactive ligand is evaluated in the presence of 10 μM phentolamine.
Starting from the inhibition curves for the specific fixation of a ligand to its receptor by increasing quantities of a non-radioactive product, the inhibition constant (Ki) of this product is determined.

SMILES | Ki α2 /Ki α1
COc1cc(N)c(CN2CCc3cc(OC)c(OC)cc3C2)cc1OC [ISK4, 2-(2-amino-4,5-dimethoxybenzyl)-6,7-dimethoxy-1,2,3,4-tetrahydroisoquinoline] | 0,28
COc1ccc2c(c1)CCN(Cc1cc(OC)c(OC)cc1N)C2 [ISK7, 2-(2-amino-4,5-dimethoxybenzyl)-6-methoxy-1,2,3,4-tetrahydroisoquinoline] | 0,06
COc1cc2c(cc1OC)CN(Cc1ccccc1N)CC2 [ISK17, 2-(2-aminobenzyl)-6,7-dimethoxy-1,2,3,4-tetrahydroisoquinoline] | 0,50
COc1cc(N)c(CN2CCc3ccccc3C2)cc1OC [ISK18, 2-(2-amino-4,5-dimethoxybenzyl)-1,2,3,4-tetrahydroisoquinoline] | 0,07
COc1ccc2c(c1)CCN(Cc1ccc(Cl)cc1N)C2 [ISK31, 2-(2-amino-4-chlorobenzyl)-6-methoxy-1,2,3,4-tetrahydroisoquinoline] | 11,6
